Counter-ions that a name gives are not always drawn. ± gives the standard deviation of the averaged measurements. This is one part of the list. Baselines shift from plate to plate; read single values as rough.
system: E18 rat cortical neuron-glia co-culture; assay: total nuclei (DAPI) / Olig2+ nuclei (ratio); higher = more depletion of OPC/OL lineage cells; conditions: 1 µM; treatment time: 8 days (DIV5-DIV13)
Procedure: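 Primary E18 rat cortical co-cultures (neurons, astrocytes, OPC/OLs) in 96-well plates. NIH Clinical Collection compounds were added on DIV5 in myelination medium at 5 and 1 µM for 8 days, then cells were fixed on DIV13 and stained for MBP, Olig2 and DAPI. Myelination (contiguous aligned MBP fiber length per Olig2+ nucleus) was normalised to plate controls (0.1% DMSO = 0, 1 µM DAPT = 100) as % of DAPT. Each value is from duplicate wells with 4 image fields each. Fiber length/MBP is the fiber score divided by the MBP differentiation score; DAPI/Olig2 is the ratio of total to Olig2+ nuclei.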

Compound | total nuclei
Cc1cc2c(s1)Nc1ccccc1N=C2N1CCN(C)CC1 [Olanzapine] | 3.17
COc1c(N2C[C@@H]3CCCN[C@@H]3C2)c(F)cc2c(=O)c(C(=O)O)cn(C3CC3)c12 [Moxifloxacin] | 3
CCCNC(C)C(=O)Nc1ccccc1C (stereo not given) [Prilocaine] | 3.9
CC(N/C(=N\C#N)Nc1ccncc1)C(C)(C)C (stereo not given) [Pinacidil] | 2.7
O=C(c1ccccc1)c1ccc2n1CCC2C(=O)O (stereo not given) [Ketorolac] | 2.64
CC1(C)C[C@@H]1C(=O)N/C(=C\CCCCSC[C@H](N)C(=O)O)C(=O)O [Cilastatin] | 2.9
COc1ccccc1OCC(O)COC(N)=O (stereo not given) [Methocarbamol] | 4.03
CN(CCOc1ccc(CC2SC(=O)NC2=O)cc1)c1ccccn1 (stereo not given) [Rosiglitazone maleate] | 4.99 ± 0.31
Nc1nc2ccc(OC(F)(F)F)cc2s1 [Riluzole] | 4.76
Cn1nnc2c(C(N)=O)ncn2c1=O [Temozolomide] | 3.34
CN1CCC[C@H]1c1cccnc1 [Nicotine] | 3.01
CCc1c2c(nc3ccc(OC(=O)N4CCC(N5CCCCC5)CC4)cc13)-c1cc3c(c(=O)n1C2)COC(=O)[C@]3(O)CC [Irinotecan] | 30.5
CN1CCN(C2=Nc3cc(F)ccc3Cc3ccccc32)CC1 [Fluperlapine] | 2.9
Nc1ncn([C@@H]2O[C@H](CO)[C@@H](O)[C@H]2O)c(=O)n1 [Azacitidine] | 2.52
NC[C@H](O)c1ccc(O)c(O)c1 [Norepinephrine] | 3
CNCCC=C1c2ccccc2CCc2ccccc21 [Nortriptyline] | 3.94
CC(C)C[C@H](NC(=O)[C@@H](COC(C)(C)C)NC(=O)[C@H](Cc1ccc(O)cc1)NC(=O)[C@H](CO)NC(=O)[C@H](Cc1c[nH]c2ccccc12)NC(=O)[C@H](Cc1cnc[nH]1)NC(=O)[C@@H]1CCC(=O)N1)C(=O)N[C@@H](CCCNC(=N)N)C(=O)N1CCC[C@H]1C(=O)NNC(N)=O [Goserelin] | 2.75
CCN(CC)C(=O)C1(c2ccccc2)CC1CN (stereo not given) [Milnacipran] | 2.69
COc1c(N2CCNC(C)C2)c(F)cc2c(=O)c(C(=O)O)cn(C3CC3)c12 (stereo not given) [Gatifloxacin] | 3.64
OCCN1C[C@H](O)[C@@H](O)[C@H](O)[C@H]1CO [Miglitol] | 5.55

same assay, conditions: 5 µM; treatment time: 8 days (DIV5-DIV13)

Compound | total nuclei
Cc1cc2c(s1)Nc1ccccc1N=C2N1CCN(C)CC1 [Olanzapine] | 2.7
COc1c(N2C[C@@H]3CCCN[C@@H]3C2)c(F)cc2c(=O)c(C(=O)O)cn(C3CC3)c12 [Moxifloxacin] | 2.9
CCCNC(C)C(=O)Nc1ccccc1C (stereo not given) [Prilocaine] | 4
CC(N/C(=N\C#N)Nc1ccncc1)C(C)(C)C (stereo not given) [Pinacidil] | 3.1
O=C(c1ccccc1)c1ccc2n1CCC2C(=O)O (stereo not given) [Ketorolac] | 2.8
CC1(C)C[C@@H]1C(=O)N/C(=C\CCCCSC[C@H](N)C(=O)O)C(=O)O [Cilastatin] | 2.9
COc1ccccc1OCC(O)COC(N)=O (stereo not given) [Methocarbamol] | 3.5
CN(CCOc1ccc(CC2SC(=O)NC2=O)cc1)c1ccccn1 (stereo not given) [Rosiglitazone maleate] | > 40
Nc1nc2ccc(OC(F)(F)F)cc2s1 [Riluzole] | 5.8
Cn1nnc2c(C(N)=O)ncn2c1=O [Temozolomide] | 4
CN1CCC[C@H]1c1cccnc1 [Nicotine] | 3
CCc1c2c(nc3ccc(OC(=O)N4CCC(N5CCCCC5)CC4)cc13)-c1cc3c(c(=O)n1C2)COC(=O)[C@]3(O)CC [Irinotecan] | > 40
CN1CCN(C2=Nc3cc(F)ccc3Cc3ccccc32)CC1 [Fluperlapine] | 2.8
Nc1ncn([C@@H]2O[C@H](CO)[C@@H](O)[C@H]2O)c(=O)n1 [Azacitidine] | 2.8
NC[C@H](O)c1ccc(O)c(O)c1 [Norepinephrine] | 2.8
CNCCC=C1c2ccccc2CCc2ccccc21 [Nortriptyline] | 9.9
CC(C)C[C@H](NC(=O)[C@@H](COC(C)(C)C)NC(=O)[C@H](Cc1ccc(O)cc1)NC(=O)[C@H](CO)NC(=O)[C@H](Cc1c[nH]c2ccccc12)NC(=O)[C@H](Cc1cnc[nH]1)NC(=O)[C@@H]1CCC(=O)N1)C(=O)N[C@@H](CCCNC(=N)N)C(=O)N1CCC[C@H]1C(=O)NNC(N)=O [Goserelin] | 2.8
CCN(CC)C(=O)C1(c2ccccc2)CC1CN (stereo not given) [Milnacipran] | 2.7
COc1c(N2CCNC(C)C2)c(F)cc2c(=O)c(C(=O)O)cn(C3CC3)c12 (stereo not given) [Gatifloxacin] | 3.7
OCCN1C[C@H](O)[C@@H](O)[C@H](O)[C@H]1CO [Miglitol] | 4.4

From the supplement of paper PMC4840960
